Assay results published in patent publication US5554510.

Test system: 434 repressor / 434R[alpha3(P22R)] heterodimer
Assay: filter binding
Details: nitrocellulose filter binding, CB buffer pH 8, 10 mM MgCl2, 50 mM KCl, room temperature, repressor 1.5-100 nM; purified recombinant protein; protein details: 1:1 mixture of the two purified repressors; label: 5'-32P

ATTTAAGTTTTATTGT (double strand) [16 bp P22/434 hybrid operator]
binding result: binds

Construct, isoform or probe ends are uncertain for at least one entry.
